Experiment [1] deals with Flag-tagged STAT3 (signal transducer and activator of transcription 3) (not stated (a rat cDNA plasmid, pcDNA3-flag-ratSTAT3-WT, is named for Figure 4F)) (UniProt P52631). Kind of experiment: co-IP; 293T cells transfected with STAT3 overexpression plasmids with different tags, treated with IL-6 (20 ng/mL) and Ssb1 (or S3I-201) for 24 h before harvest; IP with a Flag antibody.

Sequences of proteins named here, by UniProt entry; tags and fusion partners are left off.
UniProt P52631: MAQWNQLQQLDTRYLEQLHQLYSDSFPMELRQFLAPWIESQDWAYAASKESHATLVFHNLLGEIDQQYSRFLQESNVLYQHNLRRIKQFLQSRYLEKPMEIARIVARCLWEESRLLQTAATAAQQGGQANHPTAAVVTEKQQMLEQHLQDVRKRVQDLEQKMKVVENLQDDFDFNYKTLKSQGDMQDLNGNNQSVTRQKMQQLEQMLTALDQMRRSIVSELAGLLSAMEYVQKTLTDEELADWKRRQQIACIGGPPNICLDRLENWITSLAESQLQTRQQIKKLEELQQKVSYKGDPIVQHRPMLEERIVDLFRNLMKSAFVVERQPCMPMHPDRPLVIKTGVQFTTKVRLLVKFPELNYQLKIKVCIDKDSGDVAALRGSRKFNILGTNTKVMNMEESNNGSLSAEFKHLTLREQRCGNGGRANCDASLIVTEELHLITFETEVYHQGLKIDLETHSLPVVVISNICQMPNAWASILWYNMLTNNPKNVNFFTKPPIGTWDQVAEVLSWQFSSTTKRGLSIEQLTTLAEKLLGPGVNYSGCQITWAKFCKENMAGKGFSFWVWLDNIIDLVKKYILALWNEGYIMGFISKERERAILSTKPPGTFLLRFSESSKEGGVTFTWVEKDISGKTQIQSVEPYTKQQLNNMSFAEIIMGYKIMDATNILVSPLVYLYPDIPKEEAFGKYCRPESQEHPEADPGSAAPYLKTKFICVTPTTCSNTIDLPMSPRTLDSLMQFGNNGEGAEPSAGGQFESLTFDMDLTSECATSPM
UniProt P40763: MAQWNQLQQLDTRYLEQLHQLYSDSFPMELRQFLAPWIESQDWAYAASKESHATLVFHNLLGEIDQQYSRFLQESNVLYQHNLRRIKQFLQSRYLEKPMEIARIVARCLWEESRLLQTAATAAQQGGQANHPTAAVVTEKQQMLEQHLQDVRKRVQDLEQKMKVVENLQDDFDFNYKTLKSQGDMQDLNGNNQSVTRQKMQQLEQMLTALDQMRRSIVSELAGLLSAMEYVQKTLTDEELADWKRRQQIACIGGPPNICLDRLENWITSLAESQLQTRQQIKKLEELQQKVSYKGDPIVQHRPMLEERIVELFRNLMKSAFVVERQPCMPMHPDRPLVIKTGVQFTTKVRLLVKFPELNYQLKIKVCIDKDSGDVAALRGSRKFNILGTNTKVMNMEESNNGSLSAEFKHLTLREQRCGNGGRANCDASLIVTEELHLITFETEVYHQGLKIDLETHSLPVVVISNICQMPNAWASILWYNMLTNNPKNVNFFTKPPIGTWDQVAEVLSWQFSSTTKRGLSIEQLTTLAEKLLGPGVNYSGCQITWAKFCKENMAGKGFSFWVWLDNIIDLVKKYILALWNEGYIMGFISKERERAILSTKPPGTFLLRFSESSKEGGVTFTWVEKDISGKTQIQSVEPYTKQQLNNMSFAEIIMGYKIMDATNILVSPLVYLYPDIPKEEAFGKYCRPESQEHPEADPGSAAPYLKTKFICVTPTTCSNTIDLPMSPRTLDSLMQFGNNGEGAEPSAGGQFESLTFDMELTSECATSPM
UniProt G3V6X8: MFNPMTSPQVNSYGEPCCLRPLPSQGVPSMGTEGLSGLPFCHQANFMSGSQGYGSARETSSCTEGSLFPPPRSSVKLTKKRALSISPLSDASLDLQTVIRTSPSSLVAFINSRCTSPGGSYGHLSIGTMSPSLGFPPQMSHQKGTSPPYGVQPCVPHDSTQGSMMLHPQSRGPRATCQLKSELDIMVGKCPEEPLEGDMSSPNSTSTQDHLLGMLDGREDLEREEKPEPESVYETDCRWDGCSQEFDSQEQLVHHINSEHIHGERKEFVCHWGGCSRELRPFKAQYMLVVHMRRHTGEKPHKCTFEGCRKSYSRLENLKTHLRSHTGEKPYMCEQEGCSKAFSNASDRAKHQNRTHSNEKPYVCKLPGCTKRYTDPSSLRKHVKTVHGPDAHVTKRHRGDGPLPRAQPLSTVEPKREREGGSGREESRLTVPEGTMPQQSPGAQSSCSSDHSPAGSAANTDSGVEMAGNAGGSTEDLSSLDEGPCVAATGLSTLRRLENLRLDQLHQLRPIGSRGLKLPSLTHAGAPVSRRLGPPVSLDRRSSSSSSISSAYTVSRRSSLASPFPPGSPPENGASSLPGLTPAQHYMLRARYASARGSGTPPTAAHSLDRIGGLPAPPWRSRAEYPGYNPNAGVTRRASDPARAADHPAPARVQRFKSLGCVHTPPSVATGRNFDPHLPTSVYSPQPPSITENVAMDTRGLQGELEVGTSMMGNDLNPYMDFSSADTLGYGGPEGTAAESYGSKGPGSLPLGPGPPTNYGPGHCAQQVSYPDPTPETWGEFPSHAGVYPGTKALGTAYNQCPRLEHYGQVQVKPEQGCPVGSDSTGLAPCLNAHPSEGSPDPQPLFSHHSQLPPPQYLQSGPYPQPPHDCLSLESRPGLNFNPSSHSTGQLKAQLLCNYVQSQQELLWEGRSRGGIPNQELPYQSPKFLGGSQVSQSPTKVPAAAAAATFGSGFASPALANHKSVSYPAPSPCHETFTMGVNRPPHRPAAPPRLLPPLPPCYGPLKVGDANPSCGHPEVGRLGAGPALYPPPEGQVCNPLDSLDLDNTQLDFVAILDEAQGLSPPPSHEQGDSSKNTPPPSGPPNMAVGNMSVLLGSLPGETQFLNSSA
UniProt P08151: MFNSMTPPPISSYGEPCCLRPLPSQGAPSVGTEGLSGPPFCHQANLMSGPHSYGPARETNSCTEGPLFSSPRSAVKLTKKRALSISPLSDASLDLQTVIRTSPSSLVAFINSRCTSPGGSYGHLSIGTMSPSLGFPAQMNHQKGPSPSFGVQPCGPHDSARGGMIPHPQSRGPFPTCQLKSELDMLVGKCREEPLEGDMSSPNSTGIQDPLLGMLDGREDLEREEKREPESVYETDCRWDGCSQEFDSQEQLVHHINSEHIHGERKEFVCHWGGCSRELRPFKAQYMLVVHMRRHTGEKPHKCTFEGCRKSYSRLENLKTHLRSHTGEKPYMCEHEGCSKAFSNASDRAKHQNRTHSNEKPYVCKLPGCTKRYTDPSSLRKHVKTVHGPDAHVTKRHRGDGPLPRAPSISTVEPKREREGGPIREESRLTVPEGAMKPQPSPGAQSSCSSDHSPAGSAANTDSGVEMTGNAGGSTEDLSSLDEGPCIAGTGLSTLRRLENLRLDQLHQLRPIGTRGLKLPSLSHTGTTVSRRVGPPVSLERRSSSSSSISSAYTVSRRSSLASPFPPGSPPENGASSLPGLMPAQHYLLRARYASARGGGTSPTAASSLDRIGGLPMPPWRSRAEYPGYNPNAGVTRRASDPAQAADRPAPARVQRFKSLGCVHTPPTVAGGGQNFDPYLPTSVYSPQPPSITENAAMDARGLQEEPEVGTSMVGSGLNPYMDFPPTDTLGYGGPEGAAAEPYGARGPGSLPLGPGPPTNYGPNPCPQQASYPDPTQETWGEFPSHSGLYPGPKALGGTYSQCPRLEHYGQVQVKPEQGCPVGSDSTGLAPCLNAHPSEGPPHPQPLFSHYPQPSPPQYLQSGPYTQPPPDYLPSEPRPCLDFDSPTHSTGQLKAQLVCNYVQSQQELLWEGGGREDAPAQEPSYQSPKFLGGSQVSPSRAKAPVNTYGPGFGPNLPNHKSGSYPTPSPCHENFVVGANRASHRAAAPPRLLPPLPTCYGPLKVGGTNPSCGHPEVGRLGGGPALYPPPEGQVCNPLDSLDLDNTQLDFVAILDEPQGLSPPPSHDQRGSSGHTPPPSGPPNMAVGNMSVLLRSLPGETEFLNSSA

The target in experiment [2] is STAT3, endogenous in HSC-T6 cells (rat (endogenous in HSC-T6)) (UniProt P52631). Description: co-IP; endogenous proteins in lysates of HSC-T6 and LX-2 cells, IP-WB; HSC-T6 also treated with TGF-β1 and Ssb1 for 24 h.
The target of experiment [3] is STAT3, endogenous in LX-2 cells (human (endogenous in LX-2)) (UniProt P40763). The description is as above.

These are yes or no findings as the source states them, for the method shown. In cells and extracts the contact can be indirect. Some results given as binding are weak or reduced against the parent protein; the word gives no strength.

“Flag-tagged STAT3 (signal transducer and activator of transcription 3) (from UniProt P52631 1-770)”: the binding result in experiment [1] is “binds”. Consider “Gli1 (glioma-associated oncogene-1), endogenous in HSC-T6 cells (from UniProt G3V6X8 1-1109)”, for which the binding result in experiment [2] is “binds”. With “Gli1 (glioma-associated oncogene-1), endogenous in LX-2 cells (from UniProt P08151 1-1106)”, the binding result in experiment [3] was “binds”.

These data come from paper PMC12561301.
